Assay results reported in the supplement of paper PMC12067093, “Discovery and optimisation of a covalent ligand for TRIM25 and its application to targeted protein ubiquitination” (Chemical Science, 2025).
The list shows a part of the results.

Sequences of proteins named here, by UniProt entry; tags and fusion partners are left off. A change or cut given only in a name is not applied to a line headed by its entry.
UniProt Q68DK7: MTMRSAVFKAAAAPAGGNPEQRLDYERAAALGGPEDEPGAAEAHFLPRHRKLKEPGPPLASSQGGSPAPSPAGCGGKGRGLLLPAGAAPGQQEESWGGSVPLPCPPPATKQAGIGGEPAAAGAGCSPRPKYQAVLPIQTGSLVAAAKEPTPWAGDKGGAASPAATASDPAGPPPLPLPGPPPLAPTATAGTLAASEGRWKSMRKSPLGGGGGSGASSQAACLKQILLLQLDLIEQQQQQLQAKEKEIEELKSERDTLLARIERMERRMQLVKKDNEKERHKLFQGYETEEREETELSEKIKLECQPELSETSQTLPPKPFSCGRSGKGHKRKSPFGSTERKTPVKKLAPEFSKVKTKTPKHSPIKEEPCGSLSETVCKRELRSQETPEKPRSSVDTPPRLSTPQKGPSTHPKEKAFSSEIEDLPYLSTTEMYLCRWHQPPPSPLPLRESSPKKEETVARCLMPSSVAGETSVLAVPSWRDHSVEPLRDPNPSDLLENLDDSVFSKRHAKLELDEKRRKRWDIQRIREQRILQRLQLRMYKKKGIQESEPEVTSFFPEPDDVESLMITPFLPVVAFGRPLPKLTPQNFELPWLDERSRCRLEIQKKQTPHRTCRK
UniProt Q8NCE2: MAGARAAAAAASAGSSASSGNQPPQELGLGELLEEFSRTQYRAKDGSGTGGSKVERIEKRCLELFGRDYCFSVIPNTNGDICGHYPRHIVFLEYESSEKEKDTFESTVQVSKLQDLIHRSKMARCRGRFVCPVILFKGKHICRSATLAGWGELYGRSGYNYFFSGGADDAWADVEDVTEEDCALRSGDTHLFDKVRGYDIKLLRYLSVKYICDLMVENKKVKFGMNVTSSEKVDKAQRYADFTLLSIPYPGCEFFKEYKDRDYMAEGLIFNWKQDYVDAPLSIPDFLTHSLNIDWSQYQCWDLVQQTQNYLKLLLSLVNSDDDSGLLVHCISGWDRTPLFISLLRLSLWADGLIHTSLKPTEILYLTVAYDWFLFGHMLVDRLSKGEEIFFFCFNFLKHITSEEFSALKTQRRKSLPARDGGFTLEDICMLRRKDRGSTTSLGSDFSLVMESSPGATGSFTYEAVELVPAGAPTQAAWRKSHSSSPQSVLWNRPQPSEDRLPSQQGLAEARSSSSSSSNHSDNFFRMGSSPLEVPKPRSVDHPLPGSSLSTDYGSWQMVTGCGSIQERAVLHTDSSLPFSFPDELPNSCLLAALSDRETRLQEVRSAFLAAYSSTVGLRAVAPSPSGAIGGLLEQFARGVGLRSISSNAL
UniProt P10242: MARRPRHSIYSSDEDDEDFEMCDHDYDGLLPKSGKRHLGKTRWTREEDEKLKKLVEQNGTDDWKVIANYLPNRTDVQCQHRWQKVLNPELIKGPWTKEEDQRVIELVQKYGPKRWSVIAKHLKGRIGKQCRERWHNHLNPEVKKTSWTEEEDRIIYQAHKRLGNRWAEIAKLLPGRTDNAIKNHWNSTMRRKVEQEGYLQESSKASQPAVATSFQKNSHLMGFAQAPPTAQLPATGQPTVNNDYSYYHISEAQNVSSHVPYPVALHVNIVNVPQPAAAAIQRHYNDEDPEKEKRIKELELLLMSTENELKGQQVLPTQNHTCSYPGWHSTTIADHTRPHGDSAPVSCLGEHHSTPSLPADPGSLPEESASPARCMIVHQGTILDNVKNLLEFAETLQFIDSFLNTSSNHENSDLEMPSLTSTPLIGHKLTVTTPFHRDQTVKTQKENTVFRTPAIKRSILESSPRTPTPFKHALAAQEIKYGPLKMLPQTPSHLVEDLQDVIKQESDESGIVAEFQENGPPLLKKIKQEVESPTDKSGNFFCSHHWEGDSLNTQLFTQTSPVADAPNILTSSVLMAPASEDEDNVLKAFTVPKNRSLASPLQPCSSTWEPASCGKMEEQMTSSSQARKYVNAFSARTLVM
UniProt P53602: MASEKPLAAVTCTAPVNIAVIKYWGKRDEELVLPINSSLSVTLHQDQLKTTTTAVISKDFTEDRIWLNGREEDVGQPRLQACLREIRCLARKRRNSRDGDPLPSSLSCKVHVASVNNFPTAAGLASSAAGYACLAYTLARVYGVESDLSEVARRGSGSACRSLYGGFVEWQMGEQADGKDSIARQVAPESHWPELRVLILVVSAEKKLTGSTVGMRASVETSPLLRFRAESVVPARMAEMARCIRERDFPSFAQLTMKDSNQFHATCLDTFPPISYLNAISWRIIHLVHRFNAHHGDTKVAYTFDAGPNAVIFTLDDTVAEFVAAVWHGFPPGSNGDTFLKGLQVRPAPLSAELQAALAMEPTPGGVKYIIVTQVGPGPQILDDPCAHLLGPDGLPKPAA
UniProt P20591: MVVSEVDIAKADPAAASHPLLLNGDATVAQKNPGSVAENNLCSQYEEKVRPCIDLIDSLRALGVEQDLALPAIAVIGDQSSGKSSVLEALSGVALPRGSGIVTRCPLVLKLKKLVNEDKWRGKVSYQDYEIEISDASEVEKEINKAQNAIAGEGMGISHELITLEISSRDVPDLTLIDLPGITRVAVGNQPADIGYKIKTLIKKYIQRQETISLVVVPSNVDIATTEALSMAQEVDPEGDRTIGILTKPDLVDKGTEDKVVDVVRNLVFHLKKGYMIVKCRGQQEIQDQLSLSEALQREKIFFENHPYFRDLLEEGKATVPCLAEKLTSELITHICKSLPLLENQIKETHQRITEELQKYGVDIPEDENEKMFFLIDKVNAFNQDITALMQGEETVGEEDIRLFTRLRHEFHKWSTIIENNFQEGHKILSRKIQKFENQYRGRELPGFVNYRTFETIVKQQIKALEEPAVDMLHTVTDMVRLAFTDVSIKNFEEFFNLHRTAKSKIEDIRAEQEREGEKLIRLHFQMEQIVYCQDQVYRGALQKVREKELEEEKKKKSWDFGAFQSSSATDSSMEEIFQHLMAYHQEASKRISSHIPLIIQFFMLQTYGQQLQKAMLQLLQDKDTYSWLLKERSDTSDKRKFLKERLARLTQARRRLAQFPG
UniProt Q9H7P6: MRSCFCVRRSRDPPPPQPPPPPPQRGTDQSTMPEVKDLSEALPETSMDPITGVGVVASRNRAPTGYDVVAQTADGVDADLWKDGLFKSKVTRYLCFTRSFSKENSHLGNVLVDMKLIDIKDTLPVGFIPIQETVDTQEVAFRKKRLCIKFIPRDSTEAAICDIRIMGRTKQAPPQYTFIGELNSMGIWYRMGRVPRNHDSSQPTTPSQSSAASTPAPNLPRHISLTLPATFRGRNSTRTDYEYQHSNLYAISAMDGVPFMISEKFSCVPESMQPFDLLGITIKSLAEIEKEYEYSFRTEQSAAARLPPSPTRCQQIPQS
UniProt Q9Y217: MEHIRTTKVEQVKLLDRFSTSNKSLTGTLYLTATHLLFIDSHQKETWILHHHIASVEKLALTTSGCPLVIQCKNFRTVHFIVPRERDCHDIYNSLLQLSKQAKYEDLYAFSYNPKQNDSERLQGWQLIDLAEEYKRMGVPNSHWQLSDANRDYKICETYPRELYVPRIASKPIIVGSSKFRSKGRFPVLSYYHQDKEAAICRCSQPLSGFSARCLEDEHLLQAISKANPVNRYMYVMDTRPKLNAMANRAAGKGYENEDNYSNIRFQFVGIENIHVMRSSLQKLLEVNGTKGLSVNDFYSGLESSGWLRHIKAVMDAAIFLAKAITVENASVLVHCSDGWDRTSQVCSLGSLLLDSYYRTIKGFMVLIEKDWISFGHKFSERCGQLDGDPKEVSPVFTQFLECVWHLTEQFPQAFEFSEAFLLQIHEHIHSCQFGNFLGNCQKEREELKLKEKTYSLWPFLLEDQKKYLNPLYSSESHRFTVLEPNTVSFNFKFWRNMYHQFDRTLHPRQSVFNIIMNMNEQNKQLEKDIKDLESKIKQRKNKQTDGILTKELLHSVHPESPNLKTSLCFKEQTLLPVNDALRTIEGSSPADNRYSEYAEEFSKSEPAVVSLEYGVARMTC
UniProt Q96NY9: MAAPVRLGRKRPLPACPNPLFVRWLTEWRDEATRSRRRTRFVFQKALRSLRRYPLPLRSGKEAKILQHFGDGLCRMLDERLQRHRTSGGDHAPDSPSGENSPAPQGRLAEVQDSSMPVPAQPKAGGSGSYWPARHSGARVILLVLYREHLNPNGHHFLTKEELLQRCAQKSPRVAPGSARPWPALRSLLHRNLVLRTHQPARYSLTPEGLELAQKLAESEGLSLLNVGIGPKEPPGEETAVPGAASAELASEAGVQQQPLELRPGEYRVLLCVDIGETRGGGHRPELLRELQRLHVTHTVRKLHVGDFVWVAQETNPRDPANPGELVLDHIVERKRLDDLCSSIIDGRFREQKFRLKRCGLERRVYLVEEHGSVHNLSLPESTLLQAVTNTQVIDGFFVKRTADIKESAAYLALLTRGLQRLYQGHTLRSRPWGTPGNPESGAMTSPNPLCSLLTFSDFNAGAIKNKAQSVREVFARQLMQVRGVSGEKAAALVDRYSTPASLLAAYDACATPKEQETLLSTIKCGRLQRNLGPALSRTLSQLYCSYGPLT
UniProt P20585: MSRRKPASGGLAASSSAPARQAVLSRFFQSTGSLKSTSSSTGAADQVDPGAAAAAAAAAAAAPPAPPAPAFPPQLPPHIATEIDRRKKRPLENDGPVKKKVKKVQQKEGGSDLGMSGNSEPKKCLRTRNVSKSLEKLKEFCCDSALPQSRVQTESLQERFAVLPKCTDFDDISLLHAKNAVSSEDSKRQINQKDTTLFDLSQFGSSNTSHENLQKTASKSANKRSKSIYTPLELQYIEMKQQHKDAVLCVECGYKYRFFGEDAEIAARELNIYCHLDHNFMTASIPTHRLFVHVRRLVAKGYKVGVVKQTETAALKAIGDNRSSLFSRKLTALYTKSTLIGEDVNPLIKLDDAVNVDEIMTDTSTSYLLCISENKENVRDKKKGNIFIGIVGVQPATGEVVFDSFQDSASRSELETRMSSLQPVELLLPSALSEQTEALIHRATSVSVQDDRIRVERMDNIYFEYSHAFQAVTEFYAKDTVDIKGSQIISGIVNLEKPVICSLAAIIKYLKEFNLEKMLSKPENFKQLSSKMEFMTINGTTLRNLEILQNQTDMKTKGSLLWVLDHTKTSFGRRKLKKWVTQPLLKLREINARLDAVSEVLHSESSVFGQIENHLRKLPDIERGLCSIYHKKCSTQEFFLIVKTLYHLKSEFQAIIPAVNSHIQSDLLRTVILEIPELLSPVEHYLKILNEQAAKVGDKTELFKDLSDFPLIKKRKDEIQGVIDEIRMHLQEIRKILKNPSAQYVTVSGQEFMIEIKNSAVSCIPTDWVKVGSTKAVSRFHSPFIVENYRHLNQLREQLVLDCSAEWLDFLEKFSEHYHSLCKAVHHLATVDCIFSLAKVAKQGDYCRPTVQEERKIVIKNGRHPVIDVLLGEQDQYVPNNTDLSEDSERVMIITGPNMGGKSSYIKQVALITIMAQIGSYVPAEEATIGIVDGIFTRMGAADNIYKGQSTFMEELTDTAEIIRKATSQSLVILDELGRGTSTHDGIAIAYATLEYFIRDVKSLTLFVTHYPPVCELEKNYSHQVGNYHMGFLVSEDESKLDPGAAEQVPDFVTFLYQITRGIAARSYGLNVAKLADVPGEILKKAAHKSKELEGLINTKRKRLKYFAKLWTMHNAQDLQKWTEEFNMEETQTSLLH
UniProt Q9Y3D2: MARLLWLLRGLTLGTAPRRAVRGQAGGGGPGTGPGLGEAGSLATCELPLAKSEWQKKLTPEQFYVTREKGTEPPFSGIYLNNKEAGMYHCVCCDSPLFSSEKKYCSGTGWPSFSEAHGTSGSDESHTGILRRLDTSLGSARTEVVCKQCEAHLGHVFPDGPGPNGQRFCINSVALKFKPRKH
UniProt Q9NXD2: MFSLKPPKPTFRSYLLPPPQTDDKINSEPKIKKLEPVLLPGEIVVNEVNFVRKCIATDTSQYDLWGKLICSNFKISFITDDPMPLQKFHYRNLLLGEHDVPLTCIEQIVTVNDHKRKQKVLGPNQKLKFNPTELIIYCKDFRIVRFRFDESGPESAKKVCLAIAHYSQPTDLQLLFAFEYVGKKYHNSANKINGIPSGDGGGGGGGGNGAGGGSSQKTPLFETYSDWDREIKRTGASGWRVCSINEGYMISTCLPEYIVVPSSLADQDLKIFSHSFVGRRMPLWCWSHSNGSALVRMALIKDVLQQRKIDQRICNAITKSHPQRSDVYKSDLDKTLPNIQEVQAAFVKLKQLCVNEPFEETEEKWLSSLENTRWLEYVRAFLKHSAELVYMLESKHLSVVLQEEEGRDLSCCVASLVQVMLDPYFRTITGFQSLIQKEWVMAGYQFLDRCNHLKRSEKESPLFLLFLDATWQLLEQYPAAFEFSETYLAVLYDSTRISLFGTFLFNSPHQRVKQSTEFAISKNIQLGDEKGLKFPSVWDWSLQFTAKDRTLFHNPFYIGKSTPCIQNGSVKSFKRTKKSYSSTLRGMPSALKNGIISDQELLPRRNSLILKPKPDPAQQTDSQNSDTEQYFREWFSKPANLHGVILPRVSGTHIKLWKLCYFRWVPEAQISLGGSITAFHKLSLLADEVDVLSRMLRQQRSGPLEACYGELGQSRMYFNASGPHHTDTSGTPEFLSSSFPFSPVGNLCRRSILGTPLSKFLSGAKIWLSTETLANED

Compound: Cc1cc(ccc1-c1ccccc1)C(=O)N1CCCN(CC1)C(=O)CCl [compound 10]
Experiment: probe-labelled cysteine peptide fold change vs DMSO (competition) (log2 fold change); higher = less target engagement (more negative = stronger competition)
Settings: THP-1, incubation time: 4 h
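Also: competitive profiling in live THP-1 cells: cysteine peptides tagged with an iodoacetamide desthiobiotin (IA-DTB) probe, intensity after compound treatment relative to DMSO-treated cells.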

Target	probe-labelled cysteine peptide fold change (10 µM)	probe-labelled cysteine peptide fold change (50 µM)
MSL1_Q68DK7_221_KSPLGGGGGSGASSQAACLK (UniProt Q68DK7)	0.114	-0.864
MTMR14_Q8NCE2_252_YADFTLLSIPYPGCEFFK (UniProt Q8NCE2)	-0.048	0.0221
MYB_P10242_78_TDVQCQHR (UniProt P10242)	0.0584	0.681
MS4A6A_Q9H2W1_240_MTHDCGYEELLTS (UniProt Q9H2W1)	-0.428	-0.726
MVD_P53602_108_DGDPLPSSLSCK (UniProt P53602)	-0.0088	-0.0367
MX1_P20591_52_VRPCIDLIDSLR (UniProt P20591)	-0.124	-0.0865
MVB12B_Q9H7P6_161_DSTEAAICDIR (UniProt Q9H7P6)	0.0873	0.189
MTMR6_Q9Y217_203_CSQPLSGFSAR (UniProt Q9Y217)	0.233	-0.4
MUS81_Q96NY9_74_ILQHFGDGLCR (UniProt Q96NY9)	0.0499	-0.0134
MYCBP2_O75592_2044_VTFPECVR (UniProt O75592)	0.131	-0.0129
MSH3_P20585_833_AVHHLATVDCIFSLAK (UniProt P20585)	0.0467	0.0422
MTMR14_Q8NCE2_131_FVCPVILFK (UniProt Q8NCE2)	-0.00849	-0.0865
MTA3_Q9BTC8_532_KPLACIIGYLEIHPAK (UniProt Q9BTC8)	-0.345	-0.533
MSRB2_Q9Y3D2_169_FCINSVALK (UniProt Q9Y3D2)	-0.137	-0.73
MTMR10_Q9NXD2_707_SGPLEACYGELGQSR (UniProt Q9NXD2)	-0.0765	-0.331

Single entries from the entries so far:
For probe-labelled cysteine peptide fold change (50 µM), MSH3_P20585_833_AVHHLATVDCIFSLAK (UniProt P20585) reads 0.0422
For probe-labelled cysteine peptide fold change (10 µM), MX1_P20591_52_VRPCIDLIDSLR (UniProt P20591) reads -0.124
